From publication doi:10.1101/2023.03.20.533423 (bioRxiv, 2023) come the findings set out here.

Chains of the proteins cited; added tags and fusions are not shown.
UniProt O33208: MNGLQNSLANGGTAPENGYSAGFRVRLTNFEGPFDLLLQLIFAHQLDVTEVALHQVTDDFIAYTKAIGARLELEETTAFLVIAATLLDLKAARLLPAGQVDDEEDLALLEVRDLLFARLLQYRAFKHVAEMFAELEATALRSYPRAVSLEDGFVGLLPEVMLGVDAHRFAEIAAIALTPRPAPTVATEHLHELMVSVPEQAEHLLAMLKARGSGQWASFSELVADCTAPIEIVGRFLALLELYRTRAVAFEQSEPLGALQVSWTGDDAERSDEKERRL

Results are given in words; binding and its absence hold for the method and conditions named. For part of these data: Binding seen in cells or lysates may run through a third protein. Some binding calls cover weakened binding; strength is not graded here. For part of these data: Sequences can lack the tags named with a protein.

For test [1], the target named is T1, Rv1708 (MPFC bait, cloned in pUAB400) (M. tuberculosis) (UniProt P9WLT1).
T1 sequence: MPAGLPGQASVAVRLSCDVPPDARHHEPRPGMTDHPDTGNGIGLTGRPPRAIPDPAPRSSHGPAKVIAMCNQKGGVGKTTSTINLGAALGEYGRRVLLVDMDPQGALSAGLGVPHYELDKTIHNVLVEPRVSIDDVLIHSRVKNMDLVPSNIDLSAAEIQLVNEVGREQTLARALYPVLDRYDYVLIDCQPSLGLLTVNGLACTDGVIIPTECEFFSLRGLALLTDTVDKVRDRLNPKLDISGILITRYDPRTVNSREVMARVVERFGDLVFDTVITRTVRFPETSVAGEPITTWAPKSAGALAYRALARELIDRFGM
The test can be described thus: split reporter.

Test [2] deals with T2, GST-Rv1708 (M. tuberculosis) (UniProt P9WLT1).
T2 sequence: T1 sequence
The test can be described thus: pull-down.

Turning to “M. tb ScpA (MPFC prey, cloned in pUAB300) (from UniProt O33208 1-278)”, the binding entry in test [1] is “binds”. With “M. tb ScpA with C-terminal 6xHis-tag (from UniProt O33208 1-278)”, the binding entry in test [2] was “binds”.

B1: M. tb ParB (MPFC prey, cloned in pUAB300) (protein, UniProt P9WIJ9 1-344)
chain: MTQPSRRKGGLGRGLAALIPTGPADGESGPPTLGPRMGSATADVVIGGPVPDTSVMGAIYREIPPSAIEANPRQPRQVFDEEALAELVHSIREFGLLQPIVVRSLAGSQTGVRYQIVMGERRWRAAQEAGLATIPAIVRETGDDNLLRDALLENIHRVQLNPLEEAAAYQQLLDEFGVTHDELAARIGRSRPLITNMIRLLKLPIPVQRRVAAGVLSAGHARALLSLEAGPEAQEELASRIVAEGLSVRATEETVTLANHEANRQAHHSDATTPAPPRRKPIQMPGLQDVAERLSTTFDTRVTVSLGKRKGKIVVEFGSVDDLARIVGLMTTDGRDKGLHRDAL
For B1, in test [1], the binding entry is given as “binds”.
